The test concerns L1210 leukemia ip in BDF1 mice, survival T/C. As to the kind of experiment: NCI In Vivo Anticancer Drug Screen. Data for tumor model L1210 Leukemia (intraperitoneal) in B6D2F1 (BDF1) mice. The conditions noted are these: T/C endpoint: mean survival time, higher T/C = longer survival.
Setting [1] is: dose: 100.0 mg/kg/injection, schedule: Q04DX003 (ip), vehicle: Klucel (hydroxypropylcellulose) (HPC).
Setting [2] is: dose: 400.0 mg/kg/injection, schedule: Q04DX003 (ip), vehicle: saline with Tween-80.
[3] abbreviates: dose: 100.0 mg/kg/injection, schedule: Q04DX002 (ip), vehicle: Klucel (hydroxypropylcellulose) (HPC).
The mark [4] stands for this setting: dose: 200.0 mg/kg/injection, schedule: Q01DX009 (ip), vehicle: Klucel (hydroxypropylcellulose) (HPC).

Each structure is given as a SMILES string. The list is a part of this screen's results and no random one: it is rich in T/C values a quarter to a half above the control, in often repeated tests (any T/C) and in doses without a T/C. Further doses and runs are listed elsewhere. T/C gives the treated animals as a percentage of the vehicle group. Some doses have a count of surviving animals in place of a T/C: the source files T/C as zero there, which appears to mark a toxic dose or a test without result, not a measured value. Some survivor counts are full or nearly so, which does not show that the dose was tolerated: survival well below the control is almost never listed, so the zero probably covers shortened survival too. Survivors were counted at the toxicity check, usually on the fifth day, unless a day is given; later deaths do not show. Schedules are NCI's codes, read here as Q, the interval in days (D) or hours (H), X, the number of doses. Some schedules carry Z or #; the key to these is not given. For survival time, the PubChem record calls one and a half times the control and up active, and a quarter to a half above the control has no call in these data; cut-offs in other NCI protocols can differ. Some doses were run more than once; their values stand side by side, smallest first. Some T/C values carry the count of animals alive at the toxicity check (mostly the fifth day); without a count, all were alive then.

Consider `CCNc1nc(N)nc2n[nH]nc12`, for which, where the note is “dose: 400.0 mg/kg/injection, schedule: Q01DX001 (ip), vehicle: saline with Tween-80”, the survivor count is on record as 0 of 6.

As to `CNC(=N)c1ccc(NC(=N)c2ccc(NC(=O)Nc3cccc(NC(=O)Nc4ccc(C(=N)Nc5ccc(C(=N)NC)cc5)cc4)c3)cc2)cc1`, the T/C (dose: 1.25 mg/kg/injection, schedule: Q01DX015 (ip), vehicle: water) was 125 % of control; the T/C (dose: 2.5 mg/kg/injection, schedule: Q01DX015 (ip), vehicle: water) is 131 % of control; the T/C (dose: 5.0 mg/kg/injection, schedule: Q01DX Z (ip), vehicle: water) was 130 % of control; the T/C (dose: 10.0 mg/kg/injection, schedule: Q01DX001 (ip), vehicle: water) is 133 % of control; the T/C (dose: 20.0 mg/kg/injection, schedule: Q01DX015 (ip), vehicle: water) was 147 % of control; the T/C (dose: 25.0 mg/kg/injection, schedule: Q01DX001 (ip), vehicle: water) was 142, 152, 160, 176 % of control. Moreover, the T/C is, setting by setting: (dose: 50.0 mg/kg/injection, schedule: Q01DX001 (ip), vehicle: water, evaluated on day 5) 245 % of control; (dose: 50.0 mg/kg/injection, schedule: Q01DX001 (ip), vehicle: water, run until all animals had died) 196, 201, 206, 318 % of control; (dose: 75.0 mg/kg/injection, schedule: Q01DX001 (ip), vehicle: water, evaluated on day 5) 297 % of control; (dose: 75.0 mg/kg/injection, schedule: Q01DX001 (ip), vehicle: water, run until all animals had died) 255 [8 of 10 alive] and 412 % of control. The survivor count (dose: 57.0 mg/kg/injection, schedule: Q01DX Z (ip), vehicle: water) is listed as 1 of 6; the survivor count (dose: 75.0 mg/kg/injection, schedule: Q01DX001 (ip), vehicle: water) is 5 of 10; the survivor count (dose: 100.0 mg/kg/injection, schedule: Q01DX001 (ip), vehicle: water) was 3 of 6; the survivor count (dose: 114.0 mg/kg/injection, schedule: Q01DX Z (ip), vehicle: water) was 0 of 6.

Regarding `Cc1ccc(S(=O)(=O)N=N/C=C2/C=CC=CN2O)cc1`, the T/C (dose: 87.5 mg/kg/injection, schedule: Q01DX009 (ip), vehicle: saline with Tween-80) was 131 % of control. For the same compound, the survivor count (dose: 350.0 mg/kg/injection, schedule: Q01DX009 (ip), vehicle: saline with Tween-80) is 0 of 6.

As to `O=[N+]([O-])c1ccc(C=Nc2cccc(C(F)(F)F)c2)cc1`, for the setting “dose: 400.0 mg/kg/injection, schedule: Q01DX009 (ip), vehicle: Klucel (hydroxypropylcellulose) (HPC)”, the survivor count is recorded as 1 of 6.

As for `O=C1C=C(O)c2ccccc2C1=O`, the survivor count runs as follows: (dose: 62.5 mg/kg/injection, schedule: Q01DX Z (ip), vehicle: other) 0 of 6; (dose: 125.0 mg/kg/injection, schedule: Q01DX Z (ip), vehicle: other) 0 of 6; (dose: 250.0 mg/kg/injection, schedule: Q01DX Z (ip), vehicle: other) 0 of 6.

As for `O=C(Nc1ccc(Cl)c(Cl)c1)OCn1ncc2ccc([N+](=O)[O-])cc21`, for the setting “dose: 100.0 mg/kg/injection, schedule: Q01DX001 (ip), vehicle: saline”, the survivor count is reported as 4 of 4.

Turning to `Nc1nc(=S)c2[nH]c(N=Nc3ccc(S(=O)(=O)Nc4ccccn4)cc3)nc2[nH]1`, the T/C was 138, 143, 145 % of control (dose: 12.5 mg/kg/injection, schedule: Q01DX009 (ip), vehicle: Klucel (hydroxypropylcellulose) (HPC)); 134 and 147 % of control (dose: 25.0 mg/kg/injection, schedule: Q01DX009 (ip), vehicle: Klucel (hydroxypropylcellulose) (HPC)); 143 % of control under setting [1]; 125 and 126 % of control (dose: 200.0 mg/kg/injection, schedule: Q04DX003 (ip), vehicle: Klucel (hydroxypropylcellulose) (HPC)). Besides, the survivor count (dose: 400.0 mg/kg/injection, schedule: Q04DX003 (ip), vehicle: Klucel (hydroxypropylcellulose) (HPC)) is 4 of 6.

In the case of `O=C(Nc1cccc2ccccc12)OCCCBr`, under “dose: 50.0 mg/kg/injection, schedule: Q01DX009 (ip), vehicle: saline with Tween-80”, the survivor count was 1 of 3.

`c1ccc(CC(Cc2ccccc2)NC2=NCCO2)cc1`: the survivor count (dose: 100.0 mg/kg/injection, schedule: Q04DX003 (ip), vehicle: saline with Tween-80) was 1 of 6; the survivor count (dose: 200.0 mg/kg/injection, schedule: Q04DX003 (ip), vehicle: saline with Tween-80) is on record as 1 of 6; the survivor count under setting [2] was 0 of 6.

For the compound `Cc1nc2cccc3ccc4cc5ccccc5c1c4c32`, the survivor count under setting [2] is 6 of 6.

`CCC(N)C(O)C(F)(F)C(F)(F)C(F)(F)F` (centres undefined): the survivor count (dose: 400.0 mg/kg/injection, schedule: Q01DX001 (ip), vehicle: saline) is on record as 1 of 4.

`O=C1C(Cl)=C(N2CC2)C(=O)c2ccccc21`: the survivor count (dose: 10.0 mg/kg/injection, schedule: Q01DX009 (ip), vehicle: Klucel (hydroxypropylcellulose) (HPC)) is 4 of 6.

For the compound `NC(CSSCC(N)=NCCCCCSC12CC3CC(CC(C3)C1)C2)=NCCCCCSC12CC3CC(CC(C3)C1)C2`, the survivor count runs as follows: (dose: 20.0 mg/kg/injection, schedule: Q04DX002 (ip), vehicle: Klucel (hydroxypropylcellulose) (HPC)) 2 of 3; (dose: 40.0 mg/kg/injection, schedule: Q04DX002 (ip), vehicle: Klucel (hydroxypropylcellulose) (HPC)) 1 of 3; under setting [3], 0 of 3; (dose: 200.0 mg/kg/injection, schedule: Q04DX002 (ip), vehicle: Klucel (hydroxypropylcellulose) (HPC)) 1 of 3; (dose: 400.0 mg/kg/injection, schedule: Q04DX002 (ip), vehicle: Klucel (hydroxypropylcellulose) (HPC)) 0 of 3.

For the compound `COCCOC(C)C(=O)C(O)S(=O)(=O)O` (centres undefined), the survivor count runs as follows: (dose: 63.0 mg/kg/injection, schedule: Q01DX Z (oral), vehicle: saline) 7 of 7; (dose: 125.0 mg/kg/injection, schedule: Q01DX Z (oral), vehicle: saline) 7 of 7; (dose: 250.0 mg/kg/injection, schedule: Q01DX Z (oral), vehicle: saline) 7 of 7.

Regarding `O=[N+]([O-])/C=C/c1ccc(Cl)cc1Cl`, the survivor count is, setting by setting: (dose: 80.0 mg/kg/injection, schedule: Q01DX009 (ip), vehicle: saline with Tween-80) 1 of 6; under setting [3], 3 of 3; (dose: 160.0 mg/kg/injection, schedule: Q01DX009 (ip), vehicle: saline with Tween-80) 3 of 6; (dose: 160.0 mg/kg/injection, schedule: Q04DX003 (ip), vehicle: saline with Tween-80) 5 of 6.

Take `CCOc1c(Br)cc(Br)cc1/C=N/NS(=O)(=O)c1ccc(C)cc1`: the survivor count under setting [4] is 5 of 6.

In the case of `CCOC(=O)N=C=O`, the survivor count (dose: 400.0 mg/kg/injection, schedule: Q01DX009 (ip), vehicle: water) was 6 of 6.

`O=C(Nc1cc[n+](Cc2ccc(S(=O)(=O)F)cc2)cc1)c1ccccc1`: under setting [2], the survivor count was 3 of 6.

In the case of `C(/C=C/C=C/Nc1ccc(N=Nc2ccccc2)cc1)=Nc1ccc(N=Nc2ccccc2)cc1`, the survivor count (dose: 400.0 mg/kg/injection, schedule: Q01DX009 (ip), vehicle: saline sonified) was 3 of 5.

In the case of `O=[N+]([O-])c1ccc2conc2c1`, the survivor count (dose: 400.0 mg/kg/injection, schedule: Q01DX001 (ip), vehicle: carboxymethylcellulose (CMC)) is given as 2 of 4.

Turning to `COc1ccc(N=O)c(O)c1`, the survivor count under setting [4] is 0 of 6.

`COc1cccc(/C=C/[N+](=O)[O-])c1`: the survivor count is, setting by setting: under setting [1], 3 of 6; (dose: 360.0 mg/kg/injection, schedule: Q04DX003 (ip), vehicle: saline with Tween-80) 0 of 6.

The values are drawn from PubChem BioAssay AID248 (DTP/NCI, 2004).
